# Laboratory results: PubChem BioAssay AID1259308 (NCATS, 2017)
# Assay: 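Genes whose loss raises luciferase production in HEK293 cells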 (primary screen)
# Cell system: human HEK293 embryonic kidney cells stably expressing firefly luciferase (HEK-CMV-Luc2-Hygro)
# Reagent: single siRNA against human genes, 0.8 pmol siRNA per well
# Duration: 72 h
# Detection: 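Luciferase light (ONE-Glo) measured on one replicate plate set and viability (CellTiter-Glo) on the other, scaled to a negative control siRNA, with robust z-scores and luciferase per cell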
# Scale: total luciferase, z-score and total luciferase, % of control: higher = more reporter protein produced; luciferase per cell, z-score: higher = more reporter output per viable cell; viable cells, % of control: higher = more viable cells
# Rule for the call: 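Active when the median/MAD z-score for overall luciferase is greater than 3; a gene was taken forward for validation with new siRNAs if at least two of its three siRNAs passed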
# Meaning of the calls: active = raised luciferase; inactive = no rise
# This is an unselected part of about 59,000 deposited reagents. About 1,510 of all reagents (2.6%) count as active. 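Calls use total luciferase alone and ignore viability, so some active siRNAs may act by altering cell number.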 A number with no mark means an inactive call. The numbers tell different reagents against one gene apart.
gene,reagent no.,"total luciferase, z-score","total luciferase, % of control","luciferase per cell, z-score","viable cells, % of control"
ANO9,1,2.12,124,3.35,57.4
ANO9,2,-1.99,42.3,-3.07,106
ANO9,3,-0.319,75.5,-0.378,93.2
NBPF14,1,-1.44,53.3,-1.98,100
NBPF14,2,1.24,106,1.23,86.2
NBPF14,3,0.106,84,-0.328,102
KCNMB3,1,0.097,83.8,-0.183,98.3
KCNMB3,2,0.17,85.3,-0.214,101
KCNMB3,3,-0.0754,80.4,-0.222,95.2
SNRPD2,1,2.1,124,3.24,58.8
SNRPD2,2,3.02 (active),142,2.46,83
SNRPD2,3,3.22 (active),146,3.87,58.9
PILRB,1,-0.328,75.4,0.308,77.7
PILRB,2,-1.42,53.7,-0.8,74.1
PILRB,3,-0.262,76.7,-0.22,90.8
GPRC5A,1,-0.206,77.8,0.718,71.9
GPRC5A,2,-1.19,58.1,-1.41,94.2
GPRC5A,3,-0.478,72.4,-0.583,94.3
MCTP1,1,-0.277,76.4,-0.139,88.5
MCTP1,2,-0.747,67,-1.01,97.8
MCTP1,3,-0.328,75.4,0.736,69.4
PSMC4,1,0.768,97.2,4.23,35.7
PSMC4,2,-0.531,71.3,2.01,47
PSMC4,3,0.0605,83.1,1.8,57.8
CD300LB,1,-1.55,51.1,-1.79,91.3
CD300LB,2,-0.131,79.3,0.384,80.1
CD300LB,3,-0.511,71.7,0.749,65.8
IRF9,1,0.375,89.4,0.242,93.7
IRF9,2,1.59,114,0.786,103
IRF9,3,-0.272,76.5,-0.517,97.9
ELF2P4,1,-0.979,62.4,-0.79,85.9
ELF2P4,2,0.709,96,0.86,85.5
ELF2P4,3,3.57 (active),153,2.37,91.4
FASTKD1,1,0.384,89.5,0.82,80.6
FASTKD1,2,-0.0252,81.4,-0.533,105
FASTKD1,3,3.64 (active),154,2.85,81.3

5 entries from above, arranged by “luciferase per cell, z-score”, descending:
gene,reagent no.,"total luciferase, z-score","total luciferase, % of control","luciferase per cell, z-score","viable cells, % of control"
IRF9,2,1.59,114,0.786,103
CD300LB,3,-0.511,71.7,0.749,65.8
IRF9,1,0.375,89.4,0.242,93.7
IRF9,3,-0.272,76.5,-0.517,97.9
ELF2P4,1,-0.979,62.4,-0.79,85.9

The results go on:
gene,reagent no.,"total luciferase, z-score","total luciferase, % of control","luciferase per cell, z-score","viable cells, % of control"
MTHFD1LP1,1,0.0594,83.1,-0.849,116
MTHFD1LP1,2,4 (active),162,4.23,59.2
MTHFD1LP1,3,-0.314,75.6,-0.612,99.3
SPSB3,1,-1.63,49.5,-1.1,73.9
SPSB3,2,-1.94,43.3,-1.74,76.6
SPSB3,3,1.11,104,0.595,99.4
ABCC6,1,0.58,93.4,0.0544,103
ABCC6,2,0.245,86.8,0.195,92.1
ABCC6,3,1.73,116,1.3,92.3
AAR2,1,1.02,102,0.873,90.7
AAR2,2,0.402,89.9,-0.0229,101
AAR2,3,-1.14,59.2,0.192,62.9
SLC9A3,1,1.08,103,0.763,94.5
SLC9A3,2,0.469,91.2,0.368,92.5
SLC9A3,3,1.2,106,2.27,65.1
TMEM161B,1,0.167,85.2,0.66,80
TMEM161B,2,-1.19,58.3,-1.26,90.7
TMEM161B,3,5.58 (active),193,3.71,81.1
TMEM258,1,-0.935,63.3,-1.13,95.2
TMEM258,2,-0.43,73.3,0.588,70.2
TMEM258,3,0.0602,83.1,0.565,80
ASPHD1,1,1.97,121,2.51,69.9
ASPHD1,2,-1.44,53.3,-0.98,77.1
ASPHD1,3,0.788,97.6,1.05,82.7
DSCC1,1,-0.703,67.9,-0.848,94.9
DSCC1,2,-0.371,74.5,-0.66,99.1
DSCC1,3,0.286,87.6,0.315,90.1
BMP8A,1,-0.73,67.4,0.718,62.3
BMP8A,2,-0.078,80.3,-0.214,95
BMP8A,3,0.189,85.6,-0.603,112
SLC1A3,1,-2.93,23.5,-3.81,71.8
SLC1A3,2,0.157,85,-0.105,97.6
SLC1A3,3,-0.0694,80.5,-0.139,93.3
CD177,1,0.425,90.3,0.616,85.8
CD177,2,-0.196,78,-0.161,90.9
CD177,3,0.813,98.1,2.52,56.5
CAPZB,1,1.36,109,1.33,85.8
CAPZB,2,-0.836,65.3,-1.31,103
CAPZB,3,1.87,119,1.52,89.2
